According to patent US12258422B2 (NATIONAL TSING HUA UNIVERSITY, priority 2020, dated 2025):

Experiment: general procedure: solution-phase peptide synthesis; EDCI/HOBt/DIPEA with ZrOCl2 catalyst

Question: For “Fmoc-Gly-Asp(O^tBu)-D-Phe-Pip(Boc)-Arg(Mtr)-OMe”, which step yield (coupling step, relative to Fmoc-D-Phe-Pip(Boc)-Arg(Mtr)-OMe, 2HCl salt, TFA salt) is on record?
Answer: 83%

Question: Which step yield (late stage modification step, relative to cyclo-Gly-Asp(OtBu)-D-Phe-Pip(Boc)-Arg(Mtr), 2HCl) does the source give for cyclo-Gly-Asp-D-Phe-Pip-Arg ⋅ 2HCl here?
Answer: 94%

Question: For “cyclo-Gly-Asp(O^tBu)-D-Phe-Pip(Boc)-Arg(Mtr)”, which cyclisation yield (cyclisation step, relative to Fmoc-Gly-Asp(OtBu)-D-Phe-Pip(Boc)-Arg(Mtr)-OMe, 2HCl salt, TFA salt) is on record?
Answer: 41%
